The nature of this data set: soluble on expression in E. coli; label from the status in PepcDB or PDB records.

As to “MIQIQGQPRPEPLLLVLPTATSPLNISSSNISSKSSRINNNNDNENDEEDDGRDLDVEMKTESEWPRIERPTPKYADGRRISAPAVLAHGLFEIPTSCSVQITVLQQLLDQSSTLSLEPTNSPDSGVGTDSTPETSPSSSTTRRHAFAPPPPRPRPPTVPLPTVTQQIPWQTSTIWPWIQQAQSASTADATQRWLQSALLCPTTSASHPNLLTIPQISVQPQPTAPQTLLTAAPFISSTVFTPTCGDLLTTCTPSNPSLLHPYLLDTSRRFSEPNPAPLAQRTPGKKQKDGQVTYLWEFLLRLLQDDQYSPKFIKWIDQAKGIFKLVDSKAVSRLWGMHKNKPGMNYETMGRALRYYYQRGILQKVDGQRLVYRFVHLPSDVASECDSSCESADSCDSPKISPISLKLMLQPATSASDEA”, the “soluble on expression in E. coli” value is “not soluble”.

As to “MEQKIKFPRSQKVYLPGKLYPNIRVAMRKVEQVPSVSFEGEEKIATPNPEVYVYDTSGPFSDPSMSIDLKKGLPRLREEWIVGRGDVEQLPEITSEYGQMRRDDKSLDHLRFEHIALPYRAKKGEAITQMAYAKRGIITPEMEYVAIRENMNCEELGIETHITPEFVRKEIAEGHAVLPANINHPEAEPMIIGRNFLVKINTNIGNSATTSSIDEEVEKALWSCKWGGDTLMDLSTGENIHETREWIIRNCPVPVGTVPIYQALEKVNGVVEDLNWEIYRDTLIEQCEQGVDYFTIHAGIRRHNVHLADKRLCGIVSRGGSIMSKWCLVHDQESFLYEHFDDICDILAQYDVAVSLGDGLRPGSIHDANDEAQFAELDTMGELVLRAWEKNVQAFIEGPGHVPMHKIKENMERQIEKCHDAPFYTLGPLVTDIAPGYDHITSAIGAAQIGWLGTAMLCYVTPKEHLALPDKEDVRVGVITYKIAAHAADLAKGHPGAQVRDNALSKARYEFRWKDQFDLSLDPERAQGYFRAGHHIDGEYCTMCGPNFCAMRLSRDLKKNAKSDK”, the “soluble on expression in E. coli” value is given as “not soluble”.

With “MGSDKIHHHHHHMFGSKINHSDLQKLEEENKNLTHKIEKFQSENLELKNKITSLEQAALESKLKTDLLNVLLTGVLKNITIIQGDMLENVNKAEVISSYSKTSLAEMDELNHIANSINASLGNITESANKTRDVAGTLHRSVDEITNVINLIKDVSDQTNLLALNAAIEAARAGEHGRGFAVVADEVRKLAEKTQKATTEVEMNINLLKQNANEMYTQSEQVEKISIDSNAHIMSFSEKFTHLVNEAHSTNSNAVGIASEAFVSLAKLDHIAFKLNGYKEIFSKSGKQLADHTSCRLGKWLASTGKERFGQNKSFLKINEPHEKVHENMNNAITIANTEDISKDITQHSIINKCEVAENASLDLFNVFKEMLDESDH”, the “soluble on expression in E. coli” value is given as “not soluble”.

Regarding “LLLQSPAVKFITNPEFFTVLHANYSAYRVFTSSTCLKHMILKVRRDARNFERYQHNRDLVNFINMFADTRLELPRGWEIKTDQQGKSFFVDHNSRATTFIDPRIPLQNG”, the “soluble on expression in E. coli” value is reported as “soluble”.

As to “MANGIKRQHEPPRIVGDLLQSEIAEKQARSIRCQMTIAKLPLVKDIEQFDFTGTPVNEALVRELATRSLVADQRNVVLIGGTGTGKSHLAIAIARALIRNGTRGRFFNVVDLVNKLEAETRSGKQGRTADYLGRLDFVILDELGYLPFAQAGGQLLFHLISRLYERTSIIVTTNLAFGEWPTVFGDAKMTTALLDRLTHHCEIIETGNESWRFKNRALEHHHHHH”, the “soluble on expression in E. coli” value is listed as “soluble”.

Consider “MAGDPMPKYRSATTTHGRNMAGARALWRATGMTDADFGKPIIAVVNSFTQFVPGHVHLRDLGKLVAEQIEAAGGVAKEFNTIAVDDGIAMGHGGMLYSLPSRELIADSVEYMVNAHCADAMVCISNCDKITPGMLMASLRLNIPVIFVSGGPMEAGKTKLSDQIIKLDLVDAMIQGADPKVSDSQSDQVERSACPTCGSCSGMFTANSMNCLTEALGLSQPGNGSLLATHADRKQLFLNAGKRIVELTKRYYEQNDESALPRNIASKAAFENAMTLDIAMGGSTNTVLHLLAAAQEAEIDFTMSDIDKLSRKVPQLCKVAPSTQKYHMEDVHRAGGVIGILGELDRAGLLNRDVKNVLGLTLPQTLEQYDVMLTQDDAVKNMFRAGPAGIRTTQAFSQDCRWDTLDDDRANGCIRSLEHAYSKDGGLAVLYGNFAENGCIVKTAGVDDSILKFTGPAKVYESQDDAVEAILGGKVVAGDVVVIRYEGPKGGPGMQEMLYPTSFLKSMGLGKACALITDGRFSGGTSGLSIGHVSPEAASGGSIGLIEDGDLIAIDIPNRGIQLQVSDAELAARREAQDARGDKAWTPKNRERQVSFALRAYASLATSADKGAVRDKSKLGGAAALEHHHHHH”, for which the “soluble on expression in E. coli” value is on record as “not soluble”.

On to “MSLARKGVAKHGISIRLACVVYGISETCYRYQAKLSGENALVADWMLRLTQTHKRWGFGLCFLYLRNVKGYTWNHKRVYRIYRELELNLRIKPRRRIQRDYPGELDVPTAPNQVWSMDFMSDQLVSGKTFRTFNVIDDYNREGLGIEVDLSLPAQRVIRALDQIIEWRGKPAAIRCDNGPEYISQSLIDWANRNRITMIYIQPGKPTQNAYIERFNRTARHEWLDLHQFESIAHAQLLATQWLWQYNNERPNTAIGGVPPSRLRKAAEGHHHHHH”, for which the “soluble on expression in E. coli” value is recorded as “not soluble”.

Consider “MGLVKVIKNKAYFKRYQVKLRRRREGKTDYYARKRLTVQDKNKYNTPKYRLIVRITNKDVVAQLAYSKIEGDVVVASAYSHELPRYGLKVGLTNYAAAYATGLLLARRHLKTIGLDSTYKGHEELTGEDYNVEEEGDRAPFKAVLDIGLARTTTGSKIFAVMKGVADGGINVPHSESRFFGFDQESKEYNAEAHRDRILGKHVADYMTYLKEEDEDRYKRQFSKFLAAGLNADNLVATYQKVHSAIRADASPAAKKAAKPSKRHTAKRLTYDERKQRVADKKALLLQLKEQQE”, for which the “soluble on expression in E. coli” value is on record as “not soluble”.

“SLRHQDDIAIEQSHFYVEKALQNRRENSEQFSTTYSFWTDAYVYLGNRVDADWAFTKNNLGSVLYTTNGYDGVFVIDDRGTRYAMLEGELSERSLADSLNADTGDILRSARRAAVDEAAISRYVDFDGAPAILVASAIKPTSDHAPIDLAKASVMVFVDRLTPAKLAKLGGDYGIANLHLLAGGAAGDKESLALEGTPHRLAWVSSRPGSA”: the “soluble on expression in E. coli” value is recorded as “soluble”.

“MSLDRGHEMSRYARQMILPQAGGEGQARLAGARVLVVGAGGLAASALPLLAGAGVGQIDIFDGDHIELSNLHRQTLFAEGDVGRAKAEVAAERCGALNSGIVLTGTKRSITPENVILACRDTDLVLDCADSYAASYLLSDTCQALGKPLISASVLGLGGYVGGFCGGAPSLRAVFPDAPDSAASCATAGVLGPVVSILGSIQAQMALSALLELAPSPLGQMVQIDALSWRNSTFRFDGAPEPATAFRFVAPSDLSADDLIVELRTEGEAPQPAHPSARRMTVSEIEISDTNKEKRLALCCATGLRAWRSAEQLQPIWPGEIVLVAAATSEGHHHHHH”: the “soluble on expression in E. coli” value is listed as “soluble”.

As for “GHMAPLARLAANSARLLQLHKTVPQWHLTDGHLSIKRKFQFSDFNEAWGFMSRVALYADKVDHHPNWYNVYNTVDVELSTHDAAGLTEKDFALAKFMDDAAKNFEK”, the “soluble on expression in E. coli” value is recorded as “soluble”.

Turning to “MLDIRGVRKSFRKPDGSELLVLDGIDFTLGEGEIIGLLGRSGSGKSTLLRSIAGLTPPSAGSVIYHGNEVTAPPPGIAMVFQGFALFPWLTVLENVQLGLEALGLSTGELHRRAIEAIDLIGLDGFESAYPRELSGGMRQRVGFARALVVHPNILLMDEPFSALDVLTAETLRTDFLDLWSEGQLPIKGVILVTHNIEEAVLMCDRILIFGSNPGRILNEIKVELPHPRARLDPAFRDLVERIYVEMTTRSASVPAGRRTEYFPGTGIGTILPHVSSNSLSGLLEAVAAAPYNGEADLPVIASSLHMEIDELFPVAETLQMLRFAEVAGGDIRLTTEGRQFADFDTDRRKHLFARHLLTYVALAAHIRRVLDERPVHQAPWSRFADELEDYMPPAAAVQTLRTIIALGRYAEIFSYDDEKQVFSLDNPLEHHHHHH”, the “soluble on expression in E. coli” value is “not soluble”.

Take “MDDDNNRTLDFKEFMKGLNDYAVVMEKEEVEELFRRFDKDGNGTIDFNEFLLTLRPPMSRARKEVIMQAFRKLDKTGDGVITIEDLREVYNAKHHPKYQNGEWSEEQVFRKFLDNFDSPYDKDGLVTPEEFMNYYAGVSASIDTDVYFIIMMRTAWKL”: the “soluble on expression in E. coli” value is listed as “soluble”.

Regarding “SAGYNLEAIEAAPLKDDLDIVIPTIRSLDFLEQWRPFLHHYHLIIVQDGDPSIKIRVPEGYDYELYNRNDINRILGPRANCISYKDGGCRCFGFMVSKKKYIYTIDDDCFVAKDPSGKDINVIAQHIKNLETPSTPHYFNTLYDPFRDGTDFVRGYPFSLREGVQTAISHGLWLNIPDYDAPTQLVKPRERNTRYVDAVMTIPKRVLYPMCGMNLAFNRELVGPAMYFGLMGEGQPISRYDDMWAGWAAKVVCDHLGFGVKTGLPYLWHSKASNPFVNLKKEHKGLHWQEDMVPFFQNLRLSKESDTAAKCYMEISNMTKEKLTKVDPYFEKLADAMVVWIEAWEELNPPVKKKQSDGKDVKAK”, the “soluble on expression in E. coli” value is “soluble”.

Consider “MLDQPLPAEQCTQEEVSSEDEDEEMPEDTEDLDHYEMKEEEPAEGKKSEDDGIGKENLAILEKIKKNQRQDYLNGAVSGSVQATDRLMKELRDIYRSQSFKGGNYAVELVNDSLYDWNVKLLKVDQDSALHNDLQILKEKEGADFILLNFSFKDNFPFDPPFVRVVSPVLSGGYVLGGGAICMELLTKQGWSSAYSIESVIMQISATLVKGKARVQFGANKSQYSLTRAQQSYKSLVQIHEKNGWYTPPKEDG”, for which the “soluble on expression in E. coli” value is on record as “soluble”.

The values are drawn from the DeepSol protein solubility set.
